Data as given in PubChem BioAssay AID1508597 (Cure First, 2020).

Test: 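Genes whose silencing sensitises or protects ovarian cancer cells against rucaparib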 (primary screen)
System: human ovarian carcinoma lines grown from tumours: OCI-P5x (papillary serous) and OCI-C5x (clear cell)
Knock-down reagent: siRNA pool against human genes, 1.25 pmol siRNA per well
Time to read-out: 72 h or 96 h, depending on the cell culture
Treatment: rucaparib 20 µM (about IC30) or vehicle, present until read-out
Rucaparib or vehicle: Vehicle
Cell line: OCI-C5x (clear cell)
Measured: 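Luminescent ATP-based viability assay read 72 or 96 h after transfection, depending on culture, given as normalised percent viability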
Reading the numbers: viability, normalised: higher = more viable cells remaining
Call rule: 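a well counts as a hit if its normalised viability is under 80 percent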
Calls: active = viability under 80%; inactive = viability 80% or more
Shown is an unselected part of the about 2,100 reagents, under one of the conditions tested. 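Calls flag viability under 80% in either arm, not effects specific to rucaparib; the reference for percent is not stated.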 Not given: the 100% reference.

DDX53 (GeneID 168400), technical replicate 1
- viability, normalised (%): 58
- call: active

DDX53 (GeneID 168400), technical replicate 2
- viability, normalised (%): 40.4
- call: active

DDX53 (GeneID 168400), technical replicate 3
- viability, normalised (%): 64.5
- call: active

RBM14 (GeneID 10432), technical replicate 1
- viability, normalised (%): 43.2
- call: active

RBM14 (GeneID 10432), technical replicate 2
- viability, normalised (%): 47.9
- call: active

RBM14 (GeneID 10432), technical replicate 3
- viability, normalised (%): 30.8
- call: active

NTPCR (GeneID 84284), technical replicate 1
- viability, normalised (%): 53.2
- call: active

NTPCR (GeneID 84284), technical replicate 2
- viability, normalised (%): 60.4
- call: active

NTPCR (GeneID 84284), technical replicate 3
- viability, normalised (%): 75.1
- call: active

AGO2 (GeneID 27161), technical replicate 1
- viability, normalised (%): 55.1
- call: active

AGO2 (GeneID 27161), technical replicate 2
- viability, normalised (%): 47.6
- call: active

AGO2 (GeneID 27161), technical replicate 3
- viability, normalised (%): 37.7
- call: active

NEK11 (GeneID 79858), technical replicate 1
- viability, normalised (%): 124
- call: inactive

NEK11 (GeneID 79858), technical replicate 2
- viability, normalised (%): 61.3
- call: active

NEK11 (GeneID 79858), technical replicate 3
- viability, normalised (%): 52.9
- call: active

CDYL (GeneID 9425), technical replicate 1
- viability, normalised (%): 32.1
- call: active

CDYL (GeneID 9425), technical replicate 2
- viability, normalised (%): 50.4
- call: active

CDYL (GeneID 9425), technical replicate 3
- viability, normalised (%): 53.5
- call: active

3 consecutive reagents from above, for reference:
NTPCR (GeneID 84284), technical replicate 2
- viability, normalised (%): 60.4
- call: active

NTPCR (GeneID 84284), technical replicate 3
- viability, normalised (%): 75.1
- call: active

AGO2 (GeneID 27161), technical replicate 1
- viability, normalised (%): 55.1
- call: active

The listing continues:
PCK1 (GeneID 5105), technical replicate 1
- viability, normalised (%): 55.2
- call: active

PCK1 (GeneID 5105), technical replicate 2
- viability, normalised (%): 50.7
- call: active

PCK1 (GeneID 5105), technical replicate 3
- viability, normalised (%): 75.4
- call: active

PIK3R4 (GeneID 30849), technical replicate 1
- viability, normalised (%): 59.8
- call: active

PIK3R4 (GeneID 30849), technical replicate 2
- viability, normalised (%): 43.8
- call: active

PIK3R4 (GeneID 30849), technical replicate 3
- viability, normalised (%): 39.5
- call: active

SMC2 (GeneID 10592), technical replicate 1
- viability, normalised (%): 33.5
- call: active

SMC2 (GeneID 10592), technical replicate 2
- viability, normalised (%): 43.6
- call: active

SMC2 (GeneID 10592), technical replicate 3
- viability, normalised (%): 45.1
- call: active

LMNA (GeneID 4000), technical replicate 1
- viability, normalised (%): 79.6
- call: active

LMNA (GeneID 4000), technical replicate 2
- viability, normalised (%): 76.8
- call: active

LMNA (GeneID 4000), technical replicate 3
- viability, normalised (%): 90.5
- call: inactive

MAK (GeneID 4117), technical replicate 1
- viability, normalised (%): 51.9
- call: active

MAK (GeneID 4117), technical replicate 2
- viability, normalised (%): 56.6
- call: active

MAK (GeneID 4117), technical replicate 3
- viability, normalised (%): 60
- call: active
